Laboratory results taken from PMC8365426.
Results are given in words; binding and its absence hold for the method and conditions named. In cells and extracts the contact can be indirect. Binding calls can cover weak binding; strength is not graded here.

Chains of the proteins cited; added tags and fusions are not shown. Lines headed by an entry give the natural chain unless they say otherwise; changes in a name come on top. Residues count along the entry.
UniProt Q3USQ7: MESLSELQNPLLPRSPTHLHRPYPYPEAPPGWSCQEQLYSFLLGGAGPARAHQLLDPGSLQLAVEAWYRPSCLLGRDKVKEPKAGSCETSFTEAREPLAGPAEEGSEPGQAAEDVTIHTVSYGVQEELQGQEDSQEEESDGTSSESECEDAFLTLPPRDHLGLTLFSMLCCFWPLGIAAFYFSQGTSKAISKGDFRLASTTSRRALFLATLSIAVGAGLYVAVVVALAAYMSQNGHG
UniProt Q8C581: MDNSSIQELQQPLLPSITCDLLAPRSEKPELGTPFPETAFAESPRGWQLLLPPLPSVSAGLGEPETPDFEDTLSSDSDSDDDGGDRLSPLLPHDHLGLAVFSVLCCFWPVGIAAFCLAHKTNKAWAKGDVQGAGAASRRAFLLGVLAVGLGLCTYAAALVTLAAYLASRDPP
UniProt P19492, residues 23-888: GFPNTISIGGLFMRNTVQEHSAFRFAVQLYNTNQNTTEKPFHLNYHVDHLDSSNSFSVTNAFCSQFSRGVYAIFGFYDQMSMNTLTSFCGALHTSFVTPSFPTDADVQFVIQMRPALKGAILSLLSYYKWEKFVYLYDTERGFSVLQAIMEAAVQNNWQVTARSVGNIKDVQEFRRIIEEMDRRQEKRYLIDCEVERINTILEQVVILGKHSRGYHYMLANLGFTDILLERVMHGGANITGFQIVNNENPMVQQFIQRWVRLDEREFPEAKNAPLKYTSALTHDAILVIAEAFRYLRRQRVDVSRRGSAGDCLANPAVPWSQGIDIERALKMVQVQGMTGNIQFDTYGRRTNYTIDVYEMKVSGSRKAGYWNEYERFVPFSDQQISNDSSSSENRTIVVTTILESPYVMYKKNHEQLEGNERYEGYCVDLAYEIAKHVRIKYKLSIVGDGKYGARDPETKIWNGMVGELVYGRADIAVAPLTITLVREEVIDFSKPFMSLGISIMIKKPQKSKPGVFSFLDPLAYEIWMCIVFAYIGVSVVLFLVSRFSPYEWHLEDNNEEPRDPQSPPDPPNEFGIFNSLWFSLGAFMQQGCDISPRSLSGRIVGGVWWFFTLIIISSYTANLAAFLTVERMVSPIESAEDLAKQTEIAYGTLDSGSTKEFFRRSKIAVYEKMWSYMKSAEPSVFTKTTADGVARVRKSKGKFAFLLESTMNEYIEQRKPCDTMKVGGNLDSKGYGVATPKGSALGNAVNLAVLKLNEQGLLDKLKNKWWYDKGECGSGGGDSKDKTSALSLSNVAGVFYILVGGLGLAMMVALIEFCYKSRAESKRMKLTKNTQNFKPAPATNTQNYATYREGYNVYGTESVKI
UniProt P19491, residues 22-883: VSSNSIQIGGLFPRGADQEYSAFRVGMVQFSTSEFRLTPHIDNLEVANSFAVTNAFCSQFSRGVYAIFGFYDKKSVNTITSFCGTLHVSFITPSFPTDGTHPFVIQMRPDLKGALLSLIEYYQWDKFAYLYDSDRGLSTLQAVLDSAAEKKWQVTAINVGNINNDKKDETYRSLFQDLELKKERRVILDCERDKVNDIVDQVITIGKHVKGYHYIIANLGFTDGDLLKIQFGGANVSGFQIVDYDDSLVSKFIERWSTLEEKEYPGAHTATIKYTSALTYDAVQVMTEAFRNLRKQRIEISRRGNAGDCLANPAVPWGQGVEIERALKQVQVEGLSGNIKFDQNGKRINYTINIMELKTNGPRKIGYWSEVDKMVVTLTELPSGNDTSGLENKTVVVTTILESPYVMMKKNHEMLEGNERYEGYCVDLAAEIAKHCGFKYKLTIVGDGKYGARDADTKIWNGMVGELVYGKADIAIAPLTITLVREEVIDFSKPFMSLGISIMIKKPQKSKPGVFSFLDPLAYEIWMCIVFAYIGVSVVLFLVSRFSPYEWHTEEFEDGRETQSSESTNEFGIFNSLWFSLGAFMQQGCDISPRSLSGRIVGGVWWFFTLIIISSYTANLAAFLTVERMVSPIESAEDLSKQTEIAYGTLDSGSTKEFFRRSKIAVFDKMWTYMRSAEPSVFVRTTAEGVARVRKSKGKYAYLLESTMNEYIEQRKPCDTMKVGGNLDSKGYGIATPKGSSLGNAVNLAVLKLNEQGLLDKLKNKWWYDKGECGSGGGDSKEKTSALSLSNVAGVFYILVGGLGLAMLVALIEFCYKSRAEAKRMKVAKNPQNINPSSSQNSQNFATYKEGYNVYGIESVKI

Tests used:
[1] = molecular target: GFP-tagged DspC1 (SynDIG2) (mouse) (UniProt Q3USQ7); assay: co-IP; lysates of HEK293 cells expressing GFP-tagged dispanin family members and AMPAR subunits (Supplementary Figure 1); antibody of the immunoprecipitation not given
[2] = molecular target: GFP-tagged DspC3 (SynDIG3) (mouse) (UniProt Q8C581); assay: as above

Row | binding [1] | binding [2] | Substance
1 | binds | binds | Flag-GluA3 (from UniProt P19492 23-888) (receptor)
2 | binds | binds | Flag-GluA2 (from UniProt P19491 22-883) (receptor)
